Measured values taken from PubChem BioAssay (EPA / NIEHS).
Several values for one entry are separate records, joined by “and”; a condition that tells them apart may be missing. Equal values may be shown once. This list was built around the results that the source calls inconclusive (neither active nor inactive); the mix of calls is not that of the screen. For part of these data: Where the call is inconclusive, the potency comes from a doubtful curve fit. Some compounds were tested as several samples or in several runs, with calls that do not always agree. Activity calls are given as the source filed them. Rule for the calls: active = hit-call score of the fitted dose curve at least 0.9, where 1 is the maximum; inconclusive = response in the unintended direction; inactive = score below 0.9.

Protein sequences, listed by entry. Tags and fused reporters are not part of them. Lines headed by an entry give the natural chain unless they say otherwise; changes in a name come on top.
UniProt P04799: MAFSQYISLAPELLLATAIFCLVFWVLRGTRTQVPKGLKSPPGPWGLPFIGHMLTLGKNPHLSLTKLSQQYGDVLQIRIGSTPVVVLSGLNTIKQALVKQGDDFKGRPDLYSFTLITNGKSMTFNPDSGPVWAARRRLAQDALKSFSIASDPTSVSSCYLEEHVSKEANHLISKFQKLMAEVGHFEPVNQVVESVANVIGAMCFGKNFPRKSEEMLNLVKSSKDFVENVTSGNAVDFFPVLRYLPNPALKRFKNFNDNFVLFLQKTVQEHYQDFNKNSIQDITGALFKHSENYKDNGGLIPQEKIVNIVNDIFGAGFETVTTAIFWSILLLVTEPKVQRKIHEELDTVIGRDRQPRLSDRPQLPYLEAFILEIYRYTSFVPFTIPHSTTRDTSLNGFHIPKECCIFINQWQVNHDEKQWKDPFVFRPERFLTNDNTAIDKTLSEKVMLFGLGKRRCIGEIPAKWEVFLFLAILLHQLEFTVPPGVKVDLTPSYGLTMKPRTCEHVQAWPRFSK
UniProt P37231: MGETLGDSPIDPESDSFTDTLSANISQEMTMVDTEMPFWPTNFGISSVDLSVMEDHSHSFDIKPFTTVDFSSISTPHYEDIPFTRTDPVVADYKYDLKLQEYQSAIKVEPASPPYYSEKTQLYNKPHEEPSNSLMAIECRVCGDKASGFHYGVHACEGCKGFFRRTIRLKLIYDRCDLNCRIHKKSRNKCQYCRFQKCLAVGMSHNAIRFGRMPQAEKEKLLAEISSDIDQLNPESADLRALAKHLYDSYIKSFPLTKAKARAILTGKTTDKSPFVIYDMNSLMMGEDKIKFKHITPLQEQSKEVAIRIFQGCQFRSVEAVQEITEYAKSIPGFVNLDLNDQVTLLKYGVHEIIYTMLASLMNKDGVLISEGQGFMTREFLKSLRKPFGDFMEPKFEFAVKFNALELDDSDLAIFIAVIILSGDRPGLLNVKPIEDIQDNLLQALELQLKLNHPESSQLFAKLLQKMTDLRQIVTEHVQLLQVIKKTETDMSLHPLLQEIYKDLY
UniProt P19490: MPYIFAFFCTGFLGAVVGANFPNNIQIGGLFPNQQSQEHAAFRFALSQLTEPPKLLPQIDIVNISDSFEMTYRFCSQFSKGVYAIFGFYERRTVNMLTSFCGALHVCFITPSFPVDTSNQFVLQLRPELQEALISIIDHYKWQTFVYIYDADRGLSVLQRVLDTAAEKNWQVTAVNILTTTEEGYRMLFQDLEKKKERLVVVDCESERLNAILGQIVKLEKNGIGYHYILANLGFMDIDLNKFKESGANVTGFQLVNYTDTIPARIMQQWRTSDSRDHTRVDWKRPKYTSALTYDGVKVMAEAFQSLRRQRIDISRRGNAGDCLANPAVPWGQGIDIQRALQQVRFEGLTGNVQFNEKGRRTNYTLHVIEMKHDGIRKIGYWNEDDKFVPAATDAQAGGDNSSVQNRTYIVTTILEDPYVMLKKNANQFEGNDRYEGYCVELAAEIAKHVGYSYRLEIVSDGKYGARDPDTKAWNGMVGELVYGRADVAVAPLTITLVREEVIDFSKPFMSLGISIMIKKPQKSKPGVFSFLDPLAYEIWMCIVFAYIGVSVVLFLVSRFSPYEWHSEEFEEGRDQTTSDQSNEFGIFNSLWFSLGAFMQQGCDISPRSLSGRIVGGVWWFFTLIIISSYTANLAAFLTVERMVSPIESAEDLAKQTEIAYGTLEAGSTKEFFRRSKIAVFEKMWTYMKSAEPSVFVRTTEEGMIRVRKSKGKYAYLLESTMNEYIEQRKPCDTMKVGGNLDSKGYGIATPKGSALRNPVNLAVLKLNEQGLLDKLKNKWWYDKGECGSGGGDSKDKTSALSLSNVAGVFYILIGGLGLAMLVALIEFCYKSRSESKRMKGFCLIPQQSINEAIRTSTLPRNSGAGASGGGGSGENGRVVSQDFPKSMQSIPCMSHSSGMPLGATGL
UniProt P08253: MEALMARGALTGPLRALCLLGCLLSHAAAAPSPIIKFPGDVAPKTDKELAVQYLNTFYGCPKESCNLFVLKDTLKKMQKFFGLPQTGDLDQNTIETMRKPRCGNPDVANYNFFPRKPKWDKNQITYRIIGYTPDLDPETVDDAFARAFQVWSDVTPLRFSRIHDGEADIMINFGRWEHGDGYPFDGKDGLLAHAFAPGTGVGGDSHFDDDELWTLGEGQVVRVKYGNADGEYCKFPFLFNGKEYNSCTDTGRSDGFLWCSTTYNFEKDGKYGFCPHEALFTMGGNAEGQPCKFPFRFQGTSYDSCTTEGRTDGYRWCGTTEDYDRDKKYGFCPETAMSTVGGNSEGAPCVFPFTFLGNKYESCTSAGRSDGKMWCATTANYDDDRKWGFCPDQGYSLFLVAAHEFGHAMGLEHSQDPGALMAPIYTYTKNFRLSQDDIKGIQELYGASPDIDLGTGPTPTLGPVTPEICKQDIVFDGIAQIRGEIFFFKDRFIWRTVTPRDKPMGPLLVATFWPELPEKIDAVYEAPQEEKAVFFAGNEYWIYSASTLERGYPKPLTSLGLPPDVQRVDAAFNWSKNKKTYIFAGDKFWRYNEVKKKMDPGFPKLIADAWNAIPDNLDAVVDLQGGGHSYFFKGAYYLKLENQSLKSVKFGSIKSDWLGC
UniProt P23975, whole entry, looked up: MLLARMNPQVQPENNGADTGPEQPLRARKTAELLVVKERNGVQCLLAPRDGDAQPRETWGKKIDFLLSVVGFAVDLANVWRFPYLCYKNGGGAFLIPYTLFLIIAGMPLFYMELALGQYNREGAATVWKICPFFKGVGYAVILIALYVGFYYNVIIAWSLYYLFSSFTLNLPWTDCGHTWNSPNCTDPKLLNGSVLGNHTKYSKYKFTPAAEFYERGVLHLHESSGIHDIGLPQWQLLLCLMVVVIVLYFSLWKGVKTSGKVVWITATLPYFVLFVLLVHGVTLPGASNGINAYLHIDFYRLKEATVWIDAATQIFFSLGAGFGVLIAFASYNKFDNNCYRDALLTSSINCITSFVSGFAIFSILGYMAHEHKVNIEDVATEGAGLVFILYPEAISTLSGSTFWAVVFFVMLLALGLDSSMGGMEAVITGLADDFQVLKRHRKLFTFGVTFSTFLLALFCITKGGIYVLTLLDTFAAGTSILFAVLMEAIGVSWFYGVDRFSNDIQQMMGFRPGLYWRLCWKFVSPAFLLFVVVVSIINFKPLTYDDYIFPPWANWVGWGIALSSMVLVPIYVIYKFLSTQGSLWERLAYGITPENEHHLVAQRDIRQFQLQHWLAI
UniProt P03372, whole entry, looked up: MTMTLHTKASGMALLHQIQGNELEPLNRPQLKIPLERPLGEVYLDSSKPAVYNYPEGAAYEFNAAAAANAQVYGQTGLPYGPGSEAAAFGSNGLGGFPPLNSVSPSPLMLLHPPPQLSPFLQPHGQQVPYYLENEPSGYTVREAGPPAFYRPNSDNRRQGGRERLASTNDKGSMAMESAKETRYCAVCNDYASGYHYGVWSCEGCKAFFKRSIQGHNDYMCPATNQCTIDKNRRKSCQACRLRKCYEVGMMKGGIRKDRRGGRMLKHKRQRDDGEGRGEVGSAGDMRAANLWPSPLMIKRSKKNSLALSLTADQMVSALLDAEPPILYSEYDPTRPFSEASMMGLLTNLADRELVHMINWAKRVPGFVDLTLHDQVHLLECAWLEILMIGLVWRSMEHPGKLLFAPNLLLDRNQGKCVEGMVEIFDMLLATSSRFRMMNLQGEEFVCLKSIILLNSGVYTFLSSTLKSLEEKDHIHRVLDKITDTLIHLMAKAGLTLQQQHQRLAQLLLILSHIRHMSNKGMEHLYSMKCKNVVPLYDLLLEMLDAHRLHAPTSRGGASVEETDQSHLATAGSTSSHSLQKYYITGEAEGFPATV
UniProt P33535, whole entry, looked up: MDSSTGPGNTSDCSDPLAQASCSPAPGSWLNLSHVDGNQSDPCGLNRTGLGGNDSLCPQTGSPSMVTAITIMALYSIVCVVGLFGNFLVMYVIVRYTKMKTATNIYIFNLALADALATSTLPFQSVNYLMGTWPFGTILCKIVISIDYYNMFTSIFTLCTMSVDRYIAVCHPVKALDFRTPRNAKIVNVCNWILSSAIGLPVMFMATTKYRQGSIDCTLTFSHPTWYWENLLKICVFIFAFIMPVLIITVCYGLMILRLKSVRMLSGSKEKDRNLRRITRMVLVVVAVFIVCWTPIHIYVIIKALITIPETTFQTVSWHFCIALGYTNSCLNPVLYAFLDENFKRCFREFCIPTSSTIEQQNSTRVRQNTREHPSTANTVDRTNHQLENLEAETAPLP
UniProt P49137, whole entry, looked up: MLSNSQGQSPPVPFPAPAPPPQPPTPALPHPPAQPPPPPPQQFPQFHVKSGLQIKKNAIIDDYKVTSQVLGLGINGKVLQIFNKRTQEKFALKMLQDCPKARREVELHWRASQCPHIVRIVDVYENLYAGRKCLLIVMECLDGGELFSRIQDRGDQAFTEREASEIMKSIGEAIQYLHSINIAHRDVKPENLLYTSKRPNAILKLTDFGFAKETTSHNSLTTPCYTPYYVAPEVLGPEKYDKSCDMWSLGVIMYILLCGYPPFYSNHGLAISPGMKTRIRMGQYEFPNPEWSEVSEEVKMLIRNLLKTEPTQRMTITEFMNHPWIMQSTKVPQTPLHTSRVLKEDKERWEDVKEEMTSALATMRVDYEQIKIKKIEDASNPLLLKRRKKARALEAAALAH
UniProt P10275: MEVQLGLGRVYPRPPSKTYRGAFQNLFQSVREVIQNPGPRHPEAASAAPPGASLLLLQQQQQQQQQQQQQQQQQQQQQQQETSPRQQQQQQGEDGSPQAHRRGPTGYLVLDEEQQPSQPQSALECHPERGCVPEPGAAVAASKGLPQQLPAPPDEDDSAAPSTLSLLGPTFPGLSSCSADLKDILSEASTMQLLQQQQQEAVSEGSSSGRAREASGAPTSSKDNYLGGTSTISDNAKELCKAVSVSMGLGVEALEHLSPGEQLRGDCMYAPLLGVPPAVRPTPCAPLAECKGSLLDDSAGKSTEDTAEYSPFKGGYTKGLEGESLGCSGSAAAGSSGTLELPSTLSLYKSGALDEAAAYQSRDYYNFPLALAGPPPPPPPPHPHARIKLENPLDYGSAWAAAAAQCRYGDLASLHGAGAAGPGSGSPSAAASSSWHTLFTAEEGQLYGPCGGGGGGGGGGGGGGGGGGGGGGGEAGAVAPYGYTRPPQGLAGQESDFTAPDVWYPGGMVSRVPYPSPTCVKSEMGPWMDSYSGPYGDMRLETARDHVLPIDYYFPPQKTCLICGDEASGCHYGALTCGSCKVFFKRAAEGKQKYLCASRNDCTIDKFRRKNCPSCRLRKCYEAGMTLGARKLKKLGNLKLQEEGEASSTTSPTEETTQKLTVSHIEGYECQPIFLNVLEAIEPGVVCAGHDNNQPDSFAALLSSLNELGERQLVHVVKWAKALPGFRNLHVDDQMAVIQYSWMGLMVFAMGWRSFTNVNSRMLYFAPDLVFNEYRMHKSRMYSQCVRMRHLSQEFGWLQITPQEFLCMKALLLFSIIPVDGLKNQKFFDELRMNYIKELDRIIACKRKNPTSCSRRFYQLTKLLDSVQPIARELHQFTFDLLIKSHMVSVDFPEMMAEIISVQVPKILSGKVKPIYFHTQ
UniProt P29350: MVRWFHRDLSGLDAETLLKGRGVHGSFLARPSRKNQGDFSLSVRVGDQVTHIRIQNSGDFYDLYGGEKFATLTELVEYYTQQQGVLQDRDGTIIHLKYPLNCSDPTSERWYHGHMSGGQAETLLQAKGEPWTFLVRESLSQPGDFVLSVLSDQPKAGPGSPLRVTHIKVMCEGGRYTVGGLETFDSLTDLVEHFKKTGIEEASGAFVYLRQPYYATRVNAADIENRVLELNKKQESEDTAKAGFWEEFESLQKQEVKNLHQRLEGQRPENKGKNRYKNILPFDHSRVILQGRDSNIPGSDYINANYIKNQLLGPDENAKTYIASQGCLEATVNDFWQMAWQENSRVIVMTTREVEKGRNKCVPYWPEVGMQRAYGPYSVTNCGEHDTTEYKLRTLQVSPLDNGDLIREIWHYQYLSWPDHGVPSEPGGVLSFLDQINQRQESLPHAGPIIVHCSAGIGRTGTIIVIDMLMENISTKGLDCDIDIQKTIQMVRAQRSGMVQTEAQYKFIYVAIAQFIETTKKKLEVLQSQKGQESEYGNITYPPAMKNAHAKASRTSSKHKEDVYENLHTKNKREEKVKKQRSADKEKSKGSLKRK

Key:
[1] = target: rat CYP1A2, Cyp1a2 (gene 24297) (UniProt P04799); assay: NVS_ADME_rCYP1A2: NovaScreen (NVS) CYP450-related Enzyme Activity (ADME) Assay for rat CYP1A2 (AID 2283115)
Outline: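 Cell-free recombinant rat enzyme with fluorogenic substrate, read by fluorescence intensity 1 hour after dosing. Loss of signal versus acetonitrile negative control; primary screen at 10 uM in duplicate, actives followed in concentration series.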

[2] = read-out: ABC Transporter (ABCB11), ABCB11 (gene 8647); assay: CLD_ABCB11_6hr: CellzDirect (CLD) Gene Expression Assay for ABC Transporter (ABCB11) at 6 hours (AID 2283675);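 note: hits raise ABCB11 mRNA level so AC50 marks induction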
Outline: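 Human primary hepatocytes (two donor preparations) given fresh chemical daily at multiple concentrations, vehicle 0.2% DMSO. ABCB11 mRNA induction measured 6 h after dosing by qNPA chemiluminescence versus DMSO; cytotoxicity annotated from morphology.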

[3] = TOX21_PR_LUC_Followup_Antagonist_viability: Viability Assessment in the Tox21 HEK293 Progesterone Receptor (PR) Antagonism Luciferase Follow-Up Assay (AID 2283940)
Outline: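 Multiplexed viability counter-screen: after 5 days in charcoal-stripped-FBS medium, HEK293-PR-A-luc cells are plated, pinned with DMSO-dissolved compounds for 16 h at 37C, and ATP content is quantified luminescently via CellTiter-Glo.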

[4] = target: Peroxisome proliferator-activated receptor gamma (Homo sapiens) (UniProt P37231); assay: OT_PPARg_PPARgSRC1_0480: Odyssey Thera (OT) 8-hour Protein-Complementation Assay for Peroxisome Proliferator-activated Receptor Gamma / SRC-1 Co-activator (AID 2283387);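 note: nuclear to cytoplasmic split Venus YFP fluorescence ratio reporting PPARg SRC-1 interaction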
Outline: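 Protein-fragment complementation in HEK293T: Venus YFP halves (residues 1-158, 159-239, mutated to IFP1/IFP2) fused to PPARg/SRC-1. 8 h exposure; N/C ratio at 488 nm; DMSO negative control.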

[5] = Tanguay_ZF_120hpf_OTIC_legacy: (Legacy) Oregon State University Tanguay Lab 120 Hour Post-fertilization zebrafish Assay for Otic Vesicle Malformation (AID 2283639)
Outline: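 Embryos from 5D wild-type adults exposed in plates; DMSO 0.64% v/v final. Sealed, light-protected, 28C, static to 120 hpf. Otic vesicle malformation recorded as binary endpoint; gain-of-signal fitted vs DMSO.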

[6] = target: rat Glutamate, AMPA Site (AMPA), Gria1 (gene 50592) (UniProt P19490); assay: NVS_LGIC_rAMPA: NovaScreen (NVS) Ligand-Gated Ion Channel Assay for rat Glutamate, AMPA Site (AMPA) (AID 2283324)
Outline: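 Rat forebrain membranes; radioligand binding read 1 h after dosing by filtration and scintillation counting. Duplicate single-point screen at 25 uM, then concentration-response to 50 uM for threshold hits (e.g. 30% inhibition); loss of signal vs DMSO.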

[7] = read-out: Cytochrome P450 2B6 (Homo sapiens) (UniProt P20813); assay: CLD_CYP2B6_24hr: CellzDirect (CLD) Gene Expression Assay for xenobiotic metabolism (CYP2B6) at 24 hours (AID 2283686)
Outline: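 Primary human hepatocytes dosed daily for two days with fresh solutions, harvested at 24 hours; mRNA induction quantified by qNPA chemiluminescence, gain of signal vs 0.2% DMSO vehicle. Cytotoxicity annotated from phase-contrast morphology.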

[8] = target: human Matrix Metalloproteinase-2 (MMP2), MMP2 (gene 4313) (UniProt P08253); assay: NVS_ENZ_hMMP2: NovaScreen (NVS) Enzymatic Assay for human Matrix Metalloproteinase-2 (MMP2) (AID 2283184)
Outline: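 Cell-free recombinant MMP2 activity with a fluorescent substrate, read 1 h after dosing. Primary screen in duplicate at 25 uM; actives then run in concentration series; loss of signal fitted versus DMSO.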

[9] = target: human Norepinephrine Transporter (NET), SLC6A2 (gene 6530) (UniProt P23975); assay: NVS_TR_hNET: NovaScreen (NVS) Transporter Assay for human Norepinephrine Transporter (NET) (AID 2283377)
Outline: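 Cell-free radioligand binding using CHO-derived membrane protein expressing human NET, read by filter scintillation counting 1 h after dosing; loss of signal vs DMSO. Initial duplicate screen at 25 uM, actives retested in concentration series.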

[10] = test system: frog Estrogen Receptor (ESR1), gene 398734; assay: ATG_frER1_XSP1: Attagene TRANS-FACTORIAL Multi-Species (XSP1) HepG2 Assay for frog Estrogen Receptor (ESR1) (AID 2283777)
Outline: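 HepG2 cells transiently transfected with frog ER–GAL4 chimera and GAL4-UAS reporter, with 3 nM 6-alpha-fluorotestosterone present; 24 h dosing, reporter mRNA quantified by RT-PCR and capillary electrophoresis, gain of signal versus DMSO.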

[11] = CCTE_Mundy_HCI_Cortical_Synap_Neur_Matur_NeuronCount: CCTE's Synaptogenesis and Neurite Maturation Assay in rat cortical cells for Neuron Count, Mundy Lab (AID 2284242);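 note: hits reduce neuron count versus DMSO baseline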
Outline: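 Neuron number was scored by automated high-content imaging of Hoechst- and MAP2-labelled rat primary cortical cells. Glial growth was arrested with AraC at DIV 5, compounds were applied from DIV 7, and cultures ended at DIV 12.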

[12] = target: Estrogen receptor (Homo sapiens) (UniProt P03372); assay: CCTE_Deisenroth_AIME_384WELL_LUC_Inactive: CCTE's 384-well Estrogen Receptor Transactivation Assay without AIME metabolic competence (ERTA luciferase; metabolism negative), Deisenroth Lab (AID 2284038);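 note: VM7Luc4E2 breast cells given medium preincubated 2 h with S9-free microspheres; hits raise estrogen receptor luciferase signal so potencies reflect agonists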
Outline: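 Metabolism-negative mode: chemicals (10-point, 0.002–200 uM) held 2 h with alginate-water microspheres, then conditioned medium applied to VM7Luc4E2 cells for 24 h. Luciferase induction referenced to 17beta-estradiol.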

[13] = target: rat Opioid Receptor, Non-selective Binding, Oprm1 (gene 25601) (UniProt P33535); assay: NVS_GPCR_rOpiate_NonSelective: NovaScreen (NVS) G Protein-Coupled Receptor Assay for rat Opioid Receptor, Non-selective Binding (AID 2283318)
Outline: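 Rat forebrain membranes, cell-free radioligand binding with filter-based scintillation counting, read 1.5 h after dosing. Primary screen in duplicate at 25 uM; actives retested in concentration series. Loss of signal versus DMSO baseline scored.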

[14] = target: human MAP Kinase-Activated Protein Kinase 2 (MAPKAPK2), MAPKAPK2 (gene 9261) (UniProt P49137); assay: NVS_ENZ_hMAPKAPK2: NovaScreen (NVS) Enzymatic Assay for human MAP Kinase-Activated Protein Kinase 2 (MAPKAPK2) (AID 2283178)
Outline: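 Cell-free recombinant human MAPKAPK2 activity measured by fluorescence with electrophoretic mobility shift separation of substrate and product, 1 hr after dosing. Loss of signal versus DMSO; primary screen at 25 uM, concentration-response up to 50 uM.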

[15] = target: human Androgen Receptor (AR), AR (gene 367) (UniProt P10275); assay: NVS_NR_hAR: NovaScreen (NVS) Nuclear Receptor Binding Assay for human Androgen Receptor (AR) (AID 2283332)
Outline: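 LnCAP cell-free extract; radioligand displacement read by scintillation counting after 20 h. Primary screen single concentration 25 uM in duplicate, actives then run as concentration series; loss-of-signal fitted relative to DMSO baseline.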

[16] = target: Agonist Androgen Response Element (ARE), AR (gene 367) (UniProt P10275); assay: OT_AR_ARELUC_AG_1440: Odyssey Thera (OT) 24-hour CHO-K1 Luciferase Assay for Agonist Androgen Response Element (ARE) (AID 2283379)
Outline: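 CHO-K1 cells carrying an ARE-driven luciferase reporter were exposed to compounds for 24 h. Luminescence was then read after adding a D-luciferin/ATP mix, and activity was scored as a gain in signal over DMSO vehicle.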

[17] = target: human Protein Tyrosine Phosphatase Non-receptor Type 6 (PTPN6), PTPN6 (gene 5777) (UniProt P29350); assay: NVS_ENZ_hPTPN6: NovaScreen (NVS) Enzymatic Assay for human Protein Tyrosine Phosphatase Non-receptor Type 6 (PTPN6) (AID 2283210)
Outline: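 Cell-free assay with recombinant PTPN6 expressed in SF9 cells, fluorescent substrate, product separated from substrate by electrophoretic mobility shift; read 1.33 hours after dosing. Primary screen in duplicate at 25 uM, actives retested in concentration series; DMSO baseline.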

In the case of `N#Cc1c[nH]cc1-c1cccc2c1OC(F)(F)O2`, the outcome [1] is reported as “inactive”, the AC50 [2] is reported as inconclusive: 5.68 µM and the outcome [3] is reported as “inactive”.
For `CCOP(=S)(OCC)SCn1nnc2ccccc2c1=O`, the AC50 [1] was inconclusive: 0.000457 µM.
With `Cc1ccccc1OP(=O)(Oc1ccccc1C)Oc1ccccc1C` the outcome [3] was “inactive”.
For `Nc1ccc(-c2ccc(N)cc2)cc1`, the outcome [4] was “inactive” and the outcome [5] was “inactive”.
With `Clc1ccc(C(Cl)(Cl)Cl)cc1` the AC50 [6] was inconclusive: 0.316 µM.
With `Cc1ccc(N=CN(C)C=Nc2ccc(C)cc2C)c(C)c1` the outcome [7] was “inactive”.
In the case of `COCc1cnc(C2=NC(C)(C(C)C)C(=O)N2)c(C(=O)O)c1` (stereo not drawn), the AC50 [8] is reported as inconclusive: 0.252 µM and the AC50 [7] is reported as inconclusive: 0.0004 µM.
For `O=C(O)C(F)(F)C(F)(F)C(F)(F)C(F)(F)C(F)(F)C(F)(F)C(F)(F)C(F)(F)F`, the outcome [9] was “inactive”.
With `CCNc1nc(NC(C)(C)C)nc(SC)n1` the AC50 [1] was inconclusive: 1.37 µM.
In the case of `CCOP(=S)(OCC)SCn1c(=O)oc2cc(Cl)ccc21`, the AC50 [4] is reported as inconclusive: 39.6 µM and the AC50 [10] is reported as inconclusive: 100 µM.
For `N#CN`, the AC50 [7] was inconclusive: 0.029 µM.
In the case of `CCOP(=O)(OCC)Oc1cc(C)nc(C(C)C)n1`, the outcome [2] is reported as “inactive” and the AC50 [11] is reported as inconclusive: 1 nM and inconclusive: 17.9 nM.
For `CCCCOCN(C(=O)CCl)c1c(CC)cccc1CC`, the AC50 [4] was inconclusive: 88.6 µM and the AC50 [12] was inconclusive: 100 µM.
With `CS/C(C)=N/OC(=O)N(C)SN(C)C(=O)O/N=C(\C)SC` the outcome [13] was “inactive” and the AC50 [7] was inconclusive: 0.00798 µM.
With `COC(=O)N(OC)c1ccccc1COc1ccn(-c2ccc(Cl)cc2)n1` the AC50 [13] was inconclusive: 45.7 µM and the outcome [10] was “inactive”.
In the case of `Cc1cc(C)nc(NC(=O)NS(=O)(=O)c2ccccc2C(=O)OC2COC2)n1`, the AC50 [14] is reported as active: 18.6 µM and the outcome [6] is reported as “inactive”.
For `Clc1cccc(C(Cl)(Cl)Cl)n1`, the outcome [12] was “inactive”.
With `CC(C)(c1cc(Cl)c(O)c(Cl)c1)c1cc(Cl)c(O)c(Cl)c1` the AC50 [1] was inconclusive: 5 µM and the outcome [3] was “inactive”.
In the case of `CC(COc1ccc(Oc2ccccc2)cc1)Oc1ccccn1` (stereo not drawn), the AC50 [15] is reported as inconclusive: 25 µM and the AC50 [16] is reported as inconclusive: 50 µM.
With `Nc1ccc(Cl)cc1N` the AC50 [17] was inconclusive: 18.3 µM and the AC50 [4] was active: 45.3 µM.
